Consider 1 molecule from PMC5607322.

These are yes or no findings as the source states them, for the method shown. Binding seen in cells or lysates may run through a third protein. Binding calls can cover weak binding; strength is not graded here. Where a sequence is shown, tags or fusion partners need not be part of it.

For this test, the target named is C. difficile SpoVM-CPD-His6 (Clostridium difficile). The test can be described thus: pull-down.

B1: HA-tagged B. subtilis SpoIVA (protein, UniProt P35149 1-492)
chain: MEKVDIFKDIAERTGGDIYLGVVGAVRTGKSTFIKKFMELVVLPNISNEADRARAQDELPQSAAGKTIMTTEPKFVPNQAMSVHVSDGLDVNIRLVDCVGYTVPGAKGYEDENGPRMINTPWYEEPIPFHEAAEIGTRKVIQEHSTIGVVITTDGTIGDIARSDYIEAEERVIEELKEVGKPFIMVINSVRPYHPETEAMRQDLSEKYDIPVLAMSVESMRESDVLSVLREALYEFPVLEVNVNLPSWVMVLKENHWLRESYQESVKETVKDIKRLRDVDRVVGQFSEFEFIESAGLAGIELGQGVAEIDLYAPDHLYDQILKEVVGVEIRGRDHLLELMQDFAHAKTEYDQVSDALKMVKQTGYGIAAPALADMSLDEPEIIRQGSRFGVRLKAVAPSIHMIKVDVESEFAPIIGTEKQSEELVRYLMQDFEDDPLSIWNSDIFGRSLSSIVREGIQAKLSLMPENARYKLKETLERIINEGSGGLIAIIL
B1: the binding result is given as “binds”.
